Assay [1] concerns the target T1, Diva (rat (endogenous in PC12)) (UniProt Q99M66).
T1 sequence: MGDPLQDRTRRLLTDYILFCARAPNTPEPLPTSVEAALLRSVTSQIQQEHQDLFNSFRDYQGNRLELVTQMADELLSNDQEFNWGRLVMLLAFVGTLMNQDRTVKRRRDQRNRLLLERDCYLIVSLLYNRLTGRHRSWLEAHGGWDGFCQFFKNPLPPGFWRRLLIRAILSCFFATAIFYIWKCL
The experiment in a line: proximity ligation; Duolink kit I on fixed PC12 cells (4% paraformaldehyde) with Diva and Bax/Bcl2 antibodies; cells treated with H2O2 (20 nM in the methods), 0 hr against 4 hr (Bax) or 8 hr (Bcl2); confocal microscopy.

Sequences of proteins named here, by UniProt entry; tags and fusion partners are left off.
UniProt Q63690: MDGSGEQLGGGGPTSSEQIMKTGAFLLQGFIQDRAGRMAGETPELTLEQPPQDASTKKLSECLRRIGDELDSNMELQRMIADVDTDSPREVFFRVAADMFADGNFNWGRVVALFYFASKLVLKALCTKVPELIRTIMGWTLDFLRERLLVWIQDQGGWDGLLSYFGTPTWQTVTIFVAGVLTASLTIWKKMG
UniProt P49950: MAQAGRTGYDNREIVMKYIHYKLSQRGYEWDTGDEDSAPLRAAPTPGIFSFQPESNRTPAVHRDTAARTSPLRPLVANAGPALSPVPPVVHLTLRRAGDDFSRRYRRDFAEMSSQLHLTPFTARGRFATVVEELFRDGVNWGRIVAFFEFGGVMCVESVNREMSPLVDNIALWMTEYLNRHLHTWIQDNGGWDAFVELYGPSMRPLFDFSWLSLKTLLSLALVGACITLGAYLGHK

Assay [2] concerns the target T1, Diva (rat (endogenous in PC12)). Briefly: co-IP; endogenous proteins in PC12 protein extracts (M-PER) taken 0, 2, 4 and 8 hrs after 30 nM H2O2; Diva, Bcl2 or Bax antibody overnight at 4°C, Protein G Plus/Protein A agarose, 5 washes (10 mM Tris pH 7.4, 150 mM NaCl, 1% Triton X-100, EDTA, EGTA); western blot. On the technique in general: Immunoblotting shows a protein as a band on a membrane.

These are yes or no findings as the source states them, for the method shown. In cells and extracts the contact can be indirect. Some results given as binding are weak or reduced against the parent protein; the word gives no strength.

Consider Bax (from UniProt Q63690 1-192), for which the binding entry in assay [1] and in assay [2] was “binds” throughout.

Turning to Bcl2 (from UniProt P49950 1-236), the binding entry in assay [1] and in assay [2] was “binds” throughout.

For the origin of these results see PMC3419649.
